Measured values published in publication PMC10648944, “Fumagillin inhibits growth of the enteric protozoan parasite Entamoeba histolytica by covalently binding to and selectively inhibiting methionine aminopeptidase 2” (Antimicrobial Agents and Chemotherapy, 2023).
No constants are given. Whether binding was seen depends on the method and setting. In cells and extracts the contact can be indirect. These calls come from enrichment with a bait or labelling near it, and not all partners need be listed. A no says only that the protein was not detected with the bait. Sequences can lack the tags named with a protein.

Biological target: T1, HA-tagged wild-type E. histolytica methionine aminopeptidase 2 (Entamoeba histolytica) (UniProt C4LWW4)
T1 sequence: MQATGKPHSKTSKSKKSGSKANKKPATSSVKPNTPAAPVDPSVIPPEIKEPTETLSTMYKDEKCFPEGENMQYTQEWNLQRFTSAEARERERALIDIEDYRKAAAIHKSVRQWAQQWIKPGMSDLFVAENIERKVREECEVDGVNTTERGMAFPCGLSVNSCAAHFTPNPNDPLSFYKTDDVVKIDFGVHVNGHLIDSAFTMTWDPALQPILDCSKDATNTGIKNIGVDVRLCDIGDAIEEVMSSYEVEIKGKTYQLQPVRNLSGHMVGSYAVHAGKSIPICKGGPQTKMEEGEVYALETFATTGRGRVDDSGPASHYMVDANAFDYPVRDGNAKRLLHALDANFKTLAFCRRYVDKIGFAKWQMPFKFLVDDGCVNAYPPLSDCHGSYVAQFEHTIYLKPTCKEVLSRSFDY
Experiment: affinity purification with mass spectrometry; HA-EhMetAP2 expressing amoebae treated with DSP cross-linker, lysed (50 mM Tris-HCl pH 7.5, 150 mM NaCl, 1% Triton X-100); anti-HA (clone HA-7) agarose beads, 4°C, 3.5 hours; eluate by SDS-PAGE and LC-MS/MS

binding: no binding
B1: E. histolytica patatin family phospholipase A (enzyme, UniProt C4M3X9 1-625)
chain: MNINQQQDLFALLINKYINTEMNTKTAIKSLDDLRQFPIQTSPQFIRIIQEACKQGNFEVLQYFCEKFPSFIDQPNVQGETPLFIATAYNKLEIAEYLIKHGASTNHLLPTGDSYLHWIAASPPSSLKNSIINGVIAKYPEIVKTNNIIQETPMHIAALAGDIDVVNKLIECGGQPTDKTIRCIDVYGYAQASGNKELMDLLKPLCKKDQIIQEQKLMGIAGYAISRPDSSSLPSSNSNSSTNDTISDNEDTFNIECIELDPNEDTTVEGLYKKYQTYNLPKQSKLKKFMNKIVKYPSINQFKRETMVLIKEAFLSRRMMEQPNKYGKGKKYRIISLDGGGIKVLMEVILLQRLSAEFPDMFVNCNLFCGCSASSVVAVTLSMGYNLDGLMKLIEHVIRYSFKKDSIQSVTNSKYINDYLRAFGEVAFGNLKLHDLPRHVLIPSFLIDSGIDSETRHCKSEAFNNIIPGNDTEKVADVCLRSAAAPSYYKPYQNYVDGGIVDNVPCGVAWPYLIGAKGIGIDPKDIVCLSLSAGRPTPAHLDAQKIGNGGLVQWAPVLADLFMLARRDETVKEGKLLFGERFLRVDPILPGQILLDNVEQIEEVKRIAQSYDLEEIRKWMREYWE
